Measurements from PMC7862700.
The entries are a selection whose mix differs from that of the whole data set. At the low end of the ranking the order means little.

The sequences below were run against SPI1 (UniProt P17947) (assay: DAPPL (digital affinity profiling via proximity ligation, sequencing)). Details: 10 mM Tris-HCl pH 7.5, 50 mM NaCl, 1 mM DTT, 4% glycerol, room temperature, 30 min; GST-TFs on glutathione beads, 16-mer random dsDNA library, 0.1% …; high values mean tight binding; double strand, one strand shown; scale: fold enrichment (6-mer frequency, TF over GST control).

| Sequence | binding signal |
| --- | --- |
| TGATTA | 0.985 |
| CATTGG | 0.967 |
| AGAGAA | 0.881 |
| CATGAT | 1.03 |
| TGCTCC | 1.38 |
| GAATCA | 0.863 |
| TAGACA | 0.986 |
| GTACCA | 1.11 |
| GACTCG | 0.865 |
| CACCTG | 0.988 |
| ATAGCC | 0.991 |
| TGGCGC | 0.943 |
| AAGGGT | 1.05 |
| TTAGTG | 0.786 |
| GTTTGT | 0.96 |
| CGAAGA | 0.759 |
| GCTCTA | 1.04 |
| AATCGT | 0.839 |
| AATCTG | 1.42 |

| Sequence | binding signal |
| --- | --- |
| CCCTGA | 1.03 |
| TGTACG | 1.19 |
| TGTATT | 1.28 |
| GTTTGC | 1.03 |
| GATAAA | 0.999 |
| GTATGT | 0.95 |
| GCAGGT | 0.83 |
| CATATG | 0.935 |
| GCGCCG | 0.882 |
| AGAAGA | 0.894 |
| GCCAAC | 0.935 |
| GCCACC | 0.918 |
| TACGGT | 0.993 |
| CCCGAT | 1.16 |
| TCAGCC | 0.981 |
| GGATAC | 0.94 |
| TGTGCG | 0.924 |
| TGGTCG | 0.996 |
| GGTAAA | 1.04 |

Two entries from above in a different format:
Sequence	binding signal
TGATTA	0.985
CATTGG	0.967
